Source: paper PMC7878476
No constants are given. Whether binding was seen depends on the method and setting.

How the values were obtained:
[1] = target: isolated C-terminal domain of DnaJB8, CTD_(170–232) (human) (UniProt Q8NHS0); experiment: cross-linking; single recombinant proteins (100 μM) in 1× PBS, 37 °C, 30 min, ADH/DMTMM or DSS; SDS-PAGE and XL–MS; both purified
[2] = target: isolated C-terminal domain of DnaJB8, CTD_(170–232) (human) (UniProt Q8NHS0); experiment: SEC-MALS; Superdex 200 Increase 10/300 in 1× PBS with 1 mM TCEP, 0.5 mL/min; 5.1, 5.0 and 6.6 mg/mL loaded for DnaJB8F→S, JD and CTD; both purified

- binding [1]: no binding (tested: 100 μM)
- binding [2]: no binding (tested: 6.6 mg/mL)
B1: isolated C-terminal domain of DnaJB8, CTD_(170–232) (domain or fragment, UniProt Q8NHS0 170-232)
chain: GGSSSGSSGFKSVMSSTEMINGHKVTTKRIVENGQERVEVEEDGQLKSVTVNGKEQLKWMDSK
